Data as given in article PMC3579733.
No constants are given. Whether binding was seen depends on the method and setting. Binding seen in cells or lysates may run through a third protein. These calls come from enrichment with a bait or labelling near it, and not all partners need be listed.

Assays:
[1] = molecular target: T1, CheF2 (Halobacterium salinarum R1 (DSM 671)) (UniProt B0R4J4); assay: affinity purification with mass spectrometry; one-step and two-step bait fishing taken together (final data set; both methods applied to all baits); the place does not tell which of the two gave the result
T1 sequence: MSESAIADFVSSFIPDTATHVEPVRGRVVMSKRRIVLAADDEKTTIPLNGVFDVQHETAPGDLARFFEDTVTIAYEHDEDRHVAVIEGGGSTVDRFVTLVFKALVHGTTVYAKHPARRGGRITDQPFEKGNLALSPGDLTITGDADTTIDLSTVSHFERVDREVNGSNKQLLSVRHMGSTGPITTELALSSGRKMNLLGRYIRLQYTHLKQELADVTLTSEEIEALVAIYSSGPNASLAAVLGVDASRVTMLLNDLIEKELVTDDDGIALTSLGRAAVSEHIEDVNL

[2] = molecular target: T2, CheB (Halobacterium salinarum R1 (DSM 671)) (UniProt B0R4K0); assay: as above
T2 sequence: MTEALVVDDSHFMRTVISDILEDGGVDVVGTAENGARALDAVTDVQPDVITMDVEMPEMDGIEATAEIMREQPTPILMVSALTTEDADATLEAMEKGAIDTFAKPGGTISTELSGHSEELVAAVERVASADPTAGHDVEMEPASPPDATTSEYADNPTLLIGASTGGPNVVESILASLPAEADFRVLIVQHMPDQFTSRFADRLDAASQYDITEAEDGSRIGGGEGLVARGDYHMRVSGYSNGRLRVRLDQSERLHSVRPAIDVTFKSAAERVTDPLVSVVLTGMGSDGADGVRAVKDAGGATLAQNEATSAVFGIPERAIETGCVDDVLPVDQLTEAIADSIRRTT

[3] = molecular target: T3, OE2401F (Halobacterium salinarum R1 (DSM 671)) (UniProt B0R4J2); assay: as above
T3 sequence: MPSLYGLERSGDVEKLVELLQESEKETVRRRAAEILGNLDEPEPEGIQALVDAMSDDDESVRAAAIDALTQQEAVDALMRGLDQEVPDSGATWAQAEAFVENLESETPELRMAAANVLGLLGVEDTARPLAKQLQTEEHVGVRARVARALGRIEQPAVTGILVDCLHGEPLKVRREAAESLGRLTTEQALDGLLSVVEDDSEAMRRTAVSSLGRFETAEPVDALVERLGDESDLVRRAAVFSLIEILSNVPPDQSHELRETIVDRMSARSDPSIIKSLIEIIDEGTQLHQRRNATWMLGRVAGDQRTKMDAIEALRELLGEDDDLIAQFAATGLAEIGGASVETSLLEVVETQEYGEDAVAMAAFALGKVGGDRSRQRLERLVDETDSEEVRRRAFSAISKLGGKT

[4] = molecular target: T4, CheF1 (Halobacterium salinarum R1 (DSM 671)) (UniProt B0R4J3); assay: as above
T4 sequence: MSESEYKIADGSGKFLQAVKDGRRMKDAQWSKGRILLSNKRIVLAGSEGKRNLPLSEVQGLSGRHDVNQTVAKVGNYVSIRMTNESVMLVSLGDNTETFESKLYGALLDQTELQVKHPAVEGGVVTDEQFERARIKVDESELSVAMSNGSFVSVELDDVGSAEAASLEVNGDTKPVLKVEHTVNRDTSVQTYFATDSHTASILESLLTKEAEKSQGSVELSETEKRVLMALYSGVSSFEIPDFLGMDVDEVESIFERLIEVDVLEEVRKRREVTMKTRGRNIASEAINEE

[5] = molecular target: T5, CheW1 (Halobacterium salinarum R1 (DSM 671)) (UniProt Q9HQW5); assay: as above
T5 sequence: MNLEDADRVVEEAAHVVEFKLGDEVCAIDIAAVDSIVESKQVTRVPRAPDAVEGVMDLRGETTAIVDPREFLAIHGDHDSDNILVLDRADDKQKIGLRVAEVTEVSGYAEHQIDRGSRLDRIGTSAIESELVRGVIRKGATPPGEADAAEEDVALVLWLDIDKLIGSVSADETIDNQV

[6] = molecular target: PurNH (OE1620R) (Halobacterium salinarum R1 (DSM 671)); assay: as above
[7] = molecular target: OE4643R (Halobacterium salinarum R1 (DSM 671)); assay: as above
[8] = molecular target: T5, CheW1 (Halobacterium salinarum R1 (DSM 671)); assay: affinity purification with mass spectrometry; comparative two-step bait fishing: CheW1 on one cellulose column with light (12C) lysate, CheW2 on a second column with heavy (13C) lysate, the second CheW as control instead of plain CBD; only the target purified

Measured: binding

CheD (Halobacterium salinarum R1 (DSM 671))
binds: [1] | [2] | [3] | [4]

B1: CheA (enzyme, UniProt B0R4J9 1-668)
chain: MDDYLEAFVREGEEHVTSLNNALLELESDPGNEEAMDEIFRTAHTLKGNFGAMGFEDASDLAHAVEDLLDEMRQGNLEVTSDRMDRIFEGIDGIEACLDEIQATGDVDRDVTGTIESVRAVLDEVDGDGGSGTTTSSGDAGSPAGDGDVDATRVVDADTIDAAEDPVYHIHIDMGDSQMKGVDGMFVLEEATEAFDLLGAEPSPDAINDGEYGDGFELVVATPSDEVSDTVAAFPKLSDATVTAVGDDEHAPDADSGTEADASADDDADDAGTTADSGSSSGGSSAIDNTDTEIQSVRVDVDQLDELHGLVEQLVTTRIKLRRGMEESDREVLDELDELDKITSSLQDTVMDMRLVPMKKIVGKFPRLVRDLAREQDKDIDFVVEGDDVELDRTILTEISDPLMHLLRNAVDHGIEKPAVREDNGKDREGTITLSAERDRDHVLIQVRDDGAGIDHDTMREKAIEKGVKTREEVQDMPDDDVEDLVFHPGFSTNDEVTDVSGRGVGMDVVRDTVTRLDGSVSVDSTPGEGTTFTMTLPVTVAIVKVLFVESGGEEYGIPIKTVDEISRMKSVKSVDGEEVITYDETVYPLVRLGDALNVPDETRNGDGMLVRIRDSERQVAVHCDDVRGQEEVVVKPFEGILSGIPGLSGAAVLGEGDVVTILDVATL
binds: [5] | [6] | [7] | [8]
